Experimental data from patent publication US20210052473A1, “COMPOSITION FOR REMOVING ALDEHYDE-BASED ODORS AND REACTIVE OXYGEN SPECIES” (Osteon Co. Ltd., priority 2019, published 2021).
Some entries share one result that the patent states for a list of compounds.

Experiment: Deodorization performance: anisidine value (p-AV) by ultraviolet spectrometry after reaction with 0.2% 2-nonenal isooctane standard solution
Conditions: judged from p-AV against 0.2% 2-nonenal standard solution
Method: At this time, 0.2% 2-nonenal isooctane solution (v/v) was used as a standard solution to determine the deodorizing performance. 2-Nonenal is a typical aldehyde compound generated by the oxidation of unsaturated fatty acids in human skin. […] The deodorizing performance of the deodorizing substances was determined by measuring the anisidine values (p-AV).

Row | Compound | Deodorizing effect / nonenal removal ability (in words)
1 | Nc1ccnc(=O)[nH]1 [Comparative Example 13, Cytosine] | little deodorizing performance
2 | Nc1nc2nc[nH]c2c(=O)[nH]1 [Comparative Example 16, Guanine] | little deodorizing performance
3 | O=S([O-])S(=O)[O-].[Na+].[Na+] [Comparative Example 8, Sodium hydrosulfite] | little deodorizing performance
4 | Nc1ncnc2nc[nH]c12 [Comparative Example 15, Adenine] | little deodorizing performance
5 | O=S([O-])S(=O)(=O)[O-].[Na+].[Na+] [Comparative Example 6, Sodium metabisulfite] | little deodorizing performance
6 | Cc1c[nH]c(=O)[nH]c1=O [Comparative Example 14, Thymine] | little deodorizing performance
7 | O=S([O-])S(=O)(=O)[O-].[Na+].[Na+] [Comparative Example 4, Sodium metabisulfite] | little deodorizing performance
8 | N[C@@H](Cc1c[nH]cn1)C(=O)O [Comparative Example 19, Histidine] | little deodorizing performance
